# Test results published in patent publication US9814711B2, “Antitubercular composition comprising rifampicin, isoniazid, ethambutol and pyrazinamide and its process of preparation” (priority 2013, dated 2017).
# At least one structure is not confirmed: it was looked up by name or label, or the drawing left a doubt.
# Assays:
# [1] = Stability: active ingredient content of coated tablets, initial and after aging at 40° C. and 75% relative humidity; format: physicochemical
# [2] = Dissolution time test (pH 6.8 phosphate buffer, 900 mL, paddle 100 rpm, HPLC); format: physicochemical; settings: for % of dissolved actives at 45 min after beginning the Dissolution time test: pH 6.8 phosphate buffer 900 mL paddle 100 rpm
# Experimental: The dissolution time of the actives can be measured by introducing one tablet (weight 1090 mg) in 900 mL of water at 37° C. buffered to pH 6.8 with a phosphate buffer wherein the medium is mixed with a paddle at 100 rpm. The phosphate buffer is prepared by dissolving 7 g of anhydrous dibasic sodium phosphate in 5 L of water, and adjusting with phosphoric acid to a pH of 6.8. The percentage of the actives dissolved at a given time can be measured by high performance liquid chromatography (HPLC).
# [3] = coated tablet of Example 1, initial
smiles,measurement,setting,value
CO[C@H]1/C=C/O[C@@]2(C)Oc3c(C)c(O)c4c(O)c(c(/C=N/N5CCN(C)CC5)c(O)c4c3C2=O)NC(=O)/C(C)=C\C=C\[C@H](C)[C@H](O)[C@@H](C)[C@@H](O)[C@@H](C)[C@H](OC(C)=O)[C@@H]1C [Rifampicin],percentage of active ingredient measured relative to the target quantity,"[1]; coated tablet of Example 1, aging 1 month at 40° C. and 75% relative humidity",101.4%
same,percentage of active ingredient measured relative to the target quantity,"[1]; coated tablet of Example 1, aging 2 months at 40° C. and 75% relative humidity",102.0%
same,percentage of active ingredient measured relative to the target quantity,[1]; [3],101.3%
same,% of dissolved actives at 45 min after beginning the Dissolution time test,"[2]; coated tablet of Example 1, aged 1 month at 40° C. and 75% relative humidity",101%
same,% of dissolved actives at 45 min after beginning the Dissolution time test,"[2]; coated tablet of Example 1, aged 2 months at 40° C. and 75% relative humidity",100%
same,% of dissolved actives at 45 min after beginning the Dissolution time test,[2]; [3],101%
same,cumulative percentage of active released,"[2]; tablet of Example 1, 5 min",47
same,cumulative percentage of active released,"[2]; tablet of Example 1, 10 min",74
same,cumulative percentage of active released,"[2]; tablet of Example 1, 15 min",86
same,cumulative percentage of active released,"[2]; tablet of Example 1, 20 min",93
same,cumulative percentage of active released,"[2]; tablet of Example 1, 30 min",98
same,cumulative percentage of active released,"[2]; tablet of Example 1, 45 min",100
same,cumulative percentage of active released,"[2]; tablet of Example 1, 60 min",100
